Measured values reported in ChEMBL document CHEMBL1146543, “New antimycobacterial and antimalarial 8,9-secokaurane diterpenes from Croton kongensis” (J Nat Prod, 2003).
≈ marks a conversion by molar mass, not a printed value.

System: Mycobacterium tuberculosis
Assay: Antimycobacterial activity against Mycobacterium tuberculosis H37Ra by Microplate Alamar Blue Assay
Assay type: functional
Method in brief: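 Microplate Alamar Blue assay with MIC as the endpoint; isoniazid and kanamycin sulfate were run as reference drugs.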

NNC(=O)c1ccncc1 [ISONIAZID] showed an MIC of 0.04 µg/mL (≈ 0.292 µM).
